# Reference: the supplement of paper PMC8728848
# The list shows a part of the results.
# Key:
# Assay in all cases: glycan array binding signal (z-score within array); higher = stronger binding
# Details in all cases: glycan notation: IUPAC condensed, linker removed
# [1] = target: Neu5Ac(a2-3)Gal(b1-4)GlcNAc(b1-6)GalNAc
# In short: (§1)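 Glycan array data were curated from 3228 arrays in the Consortium for Functional Glycomics database and kept only where the protein sequence was available. Glycan names were converted to IUPAC-condensed notation, and columns mapping to the same glycan were averaged. The binding signal is a within-array Z-score, averaged across arrays of the same protein sequence at different concentrations or buffers and across linkers. Negative Z-scores can be read as non-binding.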
# [2] = target: Neu5Ac(a2-3)Gal(b1-4)GlcNAc(b1-6)[Gal(b1-3)]GalNAc
# In short: as §1
# [3] = target: Neu5Ac(a2-3)Gal(b1-4)GlcNAc(b1-6)[Neu5Ac(a2-3)Gal(b1-3)]GalNAc
# In short: as §1
# [4] = target: Neu5Ac(a2-3)Gal(b1-4)GlcNAc6S
# In short: as §1
# [5] = target: Neu5Ac(a2-3)Gal(b1-4)[Fuc(a1-3)]GlcNAc
# In short: as §1
# [6] = target: Neu5Ac(a2-3)Gal(b1-4)[Fuc(a1-3)]GlcNAc(b1-2)Man
# In short: as §1
# [7] = target: Neu5Ac(a2-3)Gal(b1-4)[Fuc(a1-3)]GlcNAc(b1-3)Gal
# In short: as §1
# [8] = target: Neu5Ac(a2-3)Gal(b1-4)[Fuc(a1-3)]GlcNAc(b1-3)Gal(b1-4)GlcNAc
# In short: as §1
# [9] = target: Neu5Ac(a2-3)Gal(b1-4)[Fuc(a1-3)]GlcNAc(b1-3)Gal(b1-4)[Fuc(a1-3)]GlcNAc(b1-3)Gal(b1-4)[Fuc(a1-3)]GlcNAc
# In short: as §1
# [10] = target: Neu5Ac(a2-3)Gal(b1-4)[Fuc(a1-3)]GlcNAc(b1-3)GalNAc
# In short: as §1
# [11] = target: Neu5Ac(a2-3)Gal(b1-4)[Fuc(a1-3)]GlcNAc(b1-6)[Gal(b1-3)]GalNAc
# In short: as §1
# [12] = target: Neu5Ac(a2-3)Gal(b1-4)[Fuc(a1-3)]GlcNAc(b1-6)[Neu5Ac(a2-3)Gal(b1-3)]GalNAc
# In short: as §1
# [13] = target: Neu5Ac(a2-3)Gal(b1-4)[Fuc(a1-3)]GlcNAc6S
# In short: as §1
# [14] = target: Neu5Ac(a2-3)Gal6S(b1-4)GlcNAc
# In short: as §1
# [15] = target: Neu5Ac(a2-3)Gal6S(b1-4)[Fuc(a1-3)]GlcNAc
# In short: as §1
# [16] = target: Neu5Ac(a2-3)GalNAc
# In short: as §1
# [17] = target: Neu5Ac(a2-3)GalNAc(b1-4)GlcNAc
# In short: as §1
# [18] = target: Neu5Ac(a2-3)[GalNAc(b1-4)]Gal(b1-4)Glc
# In short: as §1
# [19] = target: Neu5Ac(a2-3)[GalNAc(b1-4)]Gal(b1-4)GlcNAc
# In short: as §1
# [20] = target: Neu5Ac(a2-3)[GalNAc(b1-4)]Gal(b1-4)GlcNAc(b1-3)GalNAc
# In short: as §1
# [21] = target: Neu5Ac(a2-3)[Neu5Ac(a2-6)]GalNAc
# In short: as §1
# [22] = target: Neu5Ac(a2-6)Gal
# In short: as §1
# [23] = target: Neu5Ac(a2-6)Gal(b1-3)GlcNAc(b1-3)[Gal(b1-4)GlcNAc(b1-6)]Gal(b1-4)Glc
# In short: as §1
# [24] = target: Neu5Ac(a2-6)Gal(b1-4)Glc
# In short: as §1
# [25] = target: Neu5Ac(a2-6)Gal(b1-4)GlcNAc
# In short: as §1
# [26] = target: Neu5Ac(a2-6)Gal(b1-4)GlcNAc(b1-2)Man
# In short: as §1
# [27] = target: Neu5Ac(a2-6)Gal(b1-4)GlcNAc(b1-2)Man(a1-3)Man(b1-4)GlcNAc(b1-4)GlcNAc
# In short: as §1
# [28] = target: Neu5Ac(a2-6)Gal(b1-4)GlcNAc(b1-2)Man(a1-3)[Gal(b1-4)GlcNAc(b1-2)Man(a1-6)]Man(b1-4)GlcNAc(b1-4)GlcNAc
# In short: as §1
# [29] = target: Neu5Ac(a2-6)Gal(b1-4)GlcNAc(b1-2)Man(a1-3)[GlcNAc(b1-2)Man(a1-6)]Man(b1-4)GlcNAc(b1-4)GlcNAc
# In short: as §1
# [30] = target: Neu5Ac(a2-6)Gal(b1-4)GlcNAc(b1-2)Man(a1-3)[GlcNAc(b1-4)][Neu5Ac(a2-6)Gal(b1-4)GlcNAc(b1-2)Man(a1-6)]Man(b1-4)GlcNAc(b1-4)GlcNAc
# In short: as §1
# [31] = target: Neu5Ac(a2-6)Gal(b1-4)GlcNAc(b1-2)Man(a1-3)[Man(a1-6)]Man(b1-4)GlcNAc(b1-4)GlcNAc
# In short: as §1
binder,measurement,setting,value
Epa3to2 (Candida glabrata) (protein) MGSSHHHHHHSSGLVPRGSHMKRELSSQNPFGYPIGCSPQDVAIIPGLTMELYSYPIVSGTPPNCYDASYVDPEYPRTGYLKRKMVGKSTGVTGNLNYKYSVEKACMVKYGNLPAGYNYNEPLTVSNFTMILYGYFKAQTTGLHTFFVNADDLLYINFGAGNAFDCCKREDSKTKLGEYVAYDIWHVDSSKNKVSLFLEKDLYYPIRMFFNNRDNNSSLDLSFSVNGATDQISDFSGYLYSVPDQPDTCPAHIGYDTTCR,glycan array binding signal (z-score),[1],0.557
same,glycan array binding signal (z-score),[2],-0.072
same,glycan array binding signal (z-score),[3],-0.836
same,glycan array binding signal (z-score),[4],-0.663
same,glycan array binding signal (z-score),[5],-0.974
same,glycan array binding signal (z-score),[6],-0.793
same,glycan array binding signal (z-score),[7],-0.361
same,glycan array binding signal (z-score),[8],0.95
same,glycan array binding signal (z-score),[9],0.524
same,glycan array binding signal (z-score),[10],1.13
same,glycan array binding signal (z-score),[11],0.206
same,glycan array binding signal (z-score),[12],0.2
same,glycan array binding signal (z-score),[13],-0.508
same,glycan array binding signal (z-score),[14],-0.301
same,glycan array binding signal (z-score),[15],-0.813
same,glycan array binding signal (z-score),[16],-0.084
same,glycan array binding signal (z-score),[17],-0.344
same,glycan array binding signal (z-score),[18],-1.38
same,glycan array binding signal (z-score),[19],-0.17
same,glycan array binding signal (z-score),[20],0.187
same,glycan array binding signal (z-score),[21],-1.13
same,glycan array binding signal (z-score),[22],0.581
same,glycan array binding signal (z-score),[23],-0.463
same,glycan array binding signal (z-score),[24],-0.291
same,glycan array binding signal (z-score),[25],-0.477
same,glycan array binding signal (z-score),[26],-0.293
same,glycan array binding signal (z-score),[27],2.19
same,glycan array binding signal (z-score),[28],0.88
same,glycan array binding signal (z-score),[29],-0.347
same,glycan array binding signal (z-score),[30],-0.89
same,glycan array binding signal (z-score),[31],1.16

# Shown tab-delimited: part of the list above
binder	measurement	setting	value
Epa3to2 (Candida glabrata) (protein) MGSSHHHHHHSSGLVPRGSHMKRELSSQNPFGYPIGCSPQDVAIIPGLTMELYSYPIVSGTPPNCYDASYVDPEYPRTGYLKRKMVGKSTGVTGNLNYKYSVEKACMVKYGNLPAGYNYNEPLTVSNFTMILYGYFKAQTTGLHTFFVNADDLLYINFGAGNAFDCCKREDSKTKLGEYVAYDIWHVDSSKNKVSLFLEKDLYYPIRMFFNNRDNNSSLDLSFSVNGATDQISDFSGYLYSVPDQPDTCPAHIGYDTTCR	glycan array binding signal (z-score)	[11]	0.206
same	glycan array binding signal (z-score)	[26]	-0.293
